Measurements: PubChem BioAssay AID493014 (National Center for Advancing Translational Sciences (NCATS), 2011)
The other results are listed elsewhere or left out. These are further read-outs of the screen, such as a control signal, another cell line or another target. No call is given for them. Compounds called inactive in the main read-out are mostly missing here. Potencies come from curve fits of mixed quality, noted in brackets.

Test: qHTS Assay to Find Inhibitors of Chronic Active B-Cell Receptor Signaling
Details: ABC-DLBCL IkBa-CBG/CBR reporter, luminescence ratio (green luciferase fused to IkBa over red control in TMD8 lymphoma cells), 4 h
How it was run: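 Concentration-response series (up to 46 uM) were applied to TMD8 dual-reporter cells for 4 h at 37C with doxycycline. Green/red ratio, after filter-overlap correction, defined %Activity; red signal alone was normalised to basal cells and zero luminescence.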

[1] = measured here: CBR red luminescence, cell number
[2] = measured here: IkBa-CBG green luminescence

Row | SMILES | AC50 [1] | AC50 [2]
1 | Cc1c(C(=O)N2CCOCC2)sc(NC(=O)c2ccccc2F)c1C#N | 12.6 µM [falling, single point] | 
2 | CC(C(=O)Nc1ccccc1F)N1C(=O)c2ccccc2C1=O (stereo not drawn) | 3.98 µM [rising, partial curve, poor fit] | 
3 | Cc1ccc2nc(-c3ccc4c(c3)OCCO4)cc(C(=O)O)c2c1 | 10.3 µM [falling, partial curve] | 
4 | O=C(CCl)NC(Cc1ccccc1)c1ccccc1 (stereo not drawn) | 12.6 µM [falling, partial curve] | 
5 | CC(C)CC(NC(=O)c1ccc(Cl)cc1)C(=O)O (stereo not drawn) | 0.461 µM [rising, full curve, poor fit] | 
6 | COc1ccc2c(c1)CCC(C)N2C(=O)C(=O)c1c[nH]c2ccccc12 (stereo not drawn) | 22.4 µM [falling, partial curve, poor fit] | 
7 | CS/C(N)=N/N=C/c1c(O)ccc2ccccc12 |  | 17.8 µM [falling, single point]
8 | O=C(Nc1cccnc1Cl)c1noc2c1CCc1ccccc1-2 | 35.5 µM [rising, single point] | 
9 | Cc1cc(C)cc(NC(=O)C2C3C=CC4(O3)C2C(=O)N(CCCN2CCCCC2)C4C(=O)NC2CCCCC2)c1 (stereo not drawn) | 6.31 µM [rising, partial curve, poor fit] | 
10 | O=C(OCC1CC(c2ccccc2)=NO1)c1ccco1 (stereo not drawn) | 12.6 µM [rising, single point] | 
11 | COc1ccc(NC(=O)NC2CCCc3ccccc32)cc1 (stereo not drawn) | 2.51 µM [falling, partial curve] | 
12 | Cc1cccnc1NC(=O)CN1C(=O)COc2ccc(Cl)cc21 | 12.6 µM [rising, single point] | 
13 | COC(=O)c1sc2ccccc2c1-n1cccc1C(=O)C(=O)Nc1ccc(F)cc1 | 1.78 µM [falling, partial curve, poor fit] | 
14 | CSc1ccccc1-n1nnnc1SCC(=O)Nc1cc(C)ccc1C | 14.6 µM [falling, partial curve] | 
15 | CC(C)(C)c1ccc(N2C(=O)CC(c3ccccc3)C2=O)cc1 (stereo not drawn) | 11.2 µM [rising, partial curve] | 
16 | Cn1cncc1C#Cc1ccc2c(=O)c3ccccc3oc2c1 | 3.26 µM [rising, single point] | 
17 | COc1ccc(-c2c(C)cc3oc(=O)cc(-c4ccccc4)c3c2C)cc1 | 29.1 µM [rising, single point] | 
18 | Cc1nc2c(C(=O)NCCc3ccccc3Cl)c[nH]n2c(=O)c1Cl | 0.411 µM [rising, full curve, poor fit] | 
19 | CSc1nc2c(c(=O)n1-c1ccc(C)cc1)SCC2 | 10.3 µM [rising, partial curve, poor fit] | 
20 | Cc1ccc(C(=O)Nc2cc3[nH]c(=O)oc3cc2C)cc1 | 0.794 µM [falling, partial curve, poor fit] | 
21 | Cc1nn(CCC(=O)NNC(=S)Nc2ccc([N+](=O)[O-])cc2)c(C)c1[N+](=O)[O-] | 0.708 µM [rising, full curve, poor fit] | 
22 | Cc1cccc(C(=O)Nc2cccc3c2CCCC3)c1 | 15.8 µM [rising, partial curve] | 

Row | SMILES | AC50 [1] | AC50 [2]
23 | O=C(Nc1ccc(F)cc1)c1cc2cc(Cl)ccc2[nH]1 | 7.94 µM [falling, partial curve, poor fit] | 
24 | COc1cc(C2NCCc3c2[nH]c2ccccc32)ccc1OC(C)C (stereo not drawn) | 35.5 µM [falling, single point] | 
25 | CCCNC(=O)c1ccc(-c2nn(C)c(=O)c3ccccc23)cc1 | 12.6 µM [rising, partial curve, poor fit] | 11.2 µM [falling, partial curve, poor fit]
26 | Cc1cc(=O)[nH]c(N/N=C/c2ccc(-c3ccc(F)cc3)o2)n1 | 1.78 µM [falling, partial curve] | 
27 | CN(C)c1cc[nH]c(=O)c1C#N | 14.6 µM [falling, partial curve, poor fit] | 
28 | CCN(CC)CCNCc1cc(Cl)c(OCC(=O)Nc2ccccc2)c(OC)c1 | 12.6 µM [falling, single point] | 
29 | N/C(Cc1cccc2ccccc12)=N\OC(=O)Cc1cccs1 | 14.6 µM [rising, single point] | 
30 | COc1ccc(N2CCN(C(=O)CSc3ncccc3-c3nc4ccccc4[nH]3)CC2)cc1 | 2 µM [falling, full curve, poor fit] | 
31 | Cc1ccc(OCC(=O)OCC(=O)NC2CC2)cc1C | 1.84 µM [rising, partial curve, poor fit] | 
32 | c1ccc2c(c1)[nH]c1c3ccccc3sc21 | 1.41 µM [rising, partial curve] | 25.1 µM [rising, partial curve, poor fit]
33 | COC(=O)CSc1nnc(-c2sc3ccccc3c2Cl)o1 | 2.51 µM [falling, full curve, poor fit] | 
34 | O=C(CCN1C(=O)c2ccccc2C1=O)N1CCN(c2ccccn2)CC1 | 6.31 µM [falling, single point] | 
35 | CCOC(=O)c1cc(NCc2cccs2)ccc1N1CCOCC1 | 35.5 µM [rising, partial curve, poor fit] | 
36 | Cc1c(CCC(=O)N2CCC(C(=O)O)(c3ccccc3)CC2)c(=O)oc2cc3oc4c(c3cc12)CCCC4 | 7.94 µM [rising, partial curve] | 12.6 µM [falling, partial curve]
37 | Cc1cccc(-n2ncc3c(NCCc4ccc(S(N)(=O)=O)cc4)ncnc32)c1 | 1.3 µM [falling, full curve] | 
38 | C=CCn1c(SC(C)C(=O)NCc2ccc3c(c2)OCO3)nnc1C1CCCCC1 (stereo not drawn) | 28.2 µM [falling, single point] | 
39 | CNCCOc1ccccc1-c1ccccc1 | 29.1 µM [falling, single point] | 
40 | Cc1cccc(C(=O)N(CC(=O)Nc2sc(C)c(C)c2C(N)=O)C2CCCC2)c1 | 3.98 µM [falling, partial curve] | 
41 | CCCCOC(=O)c1ccc(NC(=O)C2CCCO2)cc1 (stereo not drawn) | 5.17 µM [rising, full curve, poor fit] | 
42 | O=C(NCCCN1CCOCC1)C(=O)NCc1ccccc1Cl | 2.51 µM [falling, partial curve, poor fit] | 
43 | CCC(=O)N1CCc2cc(Br)cc(S(=O)(=O)NCCN3CCCC3)c21 | 11.2 µM [rising, partial curve, poor fit] | 
44 | CCOC(=O)C1(Cc2ccccc2)CCCN(Cc2ccncc2)C1 (stereo not drawn) | 1.26 µM [falling, partial curve, poor fit] | 

Row | SMILES | AC50 [1] | AC50 [2]
45 | CN(C)c1ccc(/C=C(\C#N)C(=O)OCC(=O)N(C)C2CCS(=O)(=O)C2)cc1 (stereo not drawn) | 29.1 µM [rising, single point] | 
46 | COc1ccc(-c2cnc3c(c2)CCC3(C#N)C#N)cc1 | 4.11 µM [rising, full curve] | 7.31 µM [falling, partial curve]
47 | Cc1ccc(C(=O)N/C(=C\c2cccs2)C(=O)NCCCn2ccnc2)cc1C | 6.31 µM [rising, single point] | 
48 | CCCCOc1ccc(-c2nnn(C(C)(C)C(=O)OC)n2)cc1 | 2.91 µM [rising, full curve] | 
49 | Cc1ccc(C)c(CS(=O)(=O)c2cn(CC(=O)N3CCCCC3)c3ccccc23)c1 | 18.4 µM [falling, single point] | 
50 | CCCCN(CCCC)/C(N)=N/c1nc(C)cc(C)n1 | 0.794 µM [falling, full curve, poor fit] | 
51 | COc1ccc2nc(NC(=O)CSc3nc4cccnc4n3C)sc2c1 | 2.06 µM [falling, partial curve] | 
52 | Cc1ccc(C(=O)C(C)OC(=O)c2ccccc2[N+](=O)[O-])cc1 (stereo not drawn) | 16.4 µM [rising, partial curve] | 
53 | O=C(CCCN1C(=O)/C(=C/c2ccco2)SC1=S)Nc1ccccc1C(=O)O | 12.6 µM [falling, partial curve, poor fit] | 
54 | CC(C)C(=O)Nc1cc2c3c(c1)CCN3C(=O)CC2 | 22.4 µM [rising, single point] | 
55 | COc1cccc(NC(=O)Cn2cc3c(n2)CCCCC3)c1 | 11.6 µM [falling, partial curve, poor fit] | 
56 | COCCN(CC(=O)Nc1cccc(C)c1C)C(=O)Cc1cccs1 | 29.1 µM [rising, single point] | 
57 | COc1ccc(S(=O)(=O)Nc2ccc(NC(C)=O)cc2)cc1OC | 20.6 µM [rising, partial curve, poor fit] | 
58 | CCOC(=O)C(C)Sc1nnc(NC(=O)c2ccc(C)c([N+](=O)[O-])c2)s1 (stereo not drawn) | 20.6 µM [falling, partial curve] | 
59 | NC(=O)Oc1cccc(OC(N)=O)c1 | 14.1 µM [rising, single point] | 
60 | COc1ccc(C(CNC(=O)c2ccc(-n3cnnn3)cc2)N2CCOCC2)cc1 (stereo not drawn) | 3.16 µM [rising, partial curve, poor fit] | 
61 | NC(=O)CCCn1c(C(=O)c2ccc(Cl)cc2)c2ccc(C(F)(F)F)cc2[n+]1[O-] | 1.03 µM [falling, full curve, poor fit] | 
62 | COc1cc(NC(=O)CSc2nnnn2C2CCCC2)cc(OC)c1 | 20 µM [rising, single point] | 
63 | CCc1ccc(NC(=O)c2cc(Br)ccc2Br)cc1 | 7.08 µM [falling, partial curve] | 
64 | CCOc1ccccc1N1CSC2=C(C#N)C(c3c(OC)ccc4ccccc34)CC(=O)N2C1 (stereo not drawn) |  | 14.1 µM [falling, partial curve, poor fit]
